Values from PubChem BioAssay AID1224831 (NIAID, 2016)
In all, the deposit lists about 3,500 reagents; this is an unselected part. In the full data, 731 (21%) are marked active. 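Active means either lowered or raised reporter signal; the gene-median score did not drive the per-siRNA calls.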 The numbers tell different reagents against one gene apart.

- Aim: 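Genes that support or restrain LPS-induced TNF-alpha reporter activity in macrophage-like cells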 (follow-up of hits)
- Cell system: human THP-1 B5 monocytic leukaemia cells carrying a TNF promoter luciferase reporter, made macrophage-like with PMA
- Reagent: single siRNA against human genes, 50 nM
- Timing: about 68 h of knock-down, then 4 h LPS
- Conditions: LPS (Salmonella minnesota, TLR-grade) at 10 ng/ml for 4 h; PMA 5 ng/ml present during knock-down
- Read-out: 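Firefly to renilla luciferase ratio of a TNF promoter reporter after 4 h LPS, scaled to plate median, turned into robust z-score, averaged over replicates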
- Direction: TNF reporter z-score: higher = stronger LPS-induced TNF reporter signal; z-score, median over gene's siRNAs: higher = stronger TNF reporter signal across the gene's siRNAs
- Active means: 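Two-sided call: reduced or raised TNF reporter signal counts as active once mean z reaches about -1 or below, or about 1.5 or above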
- Calls: active = changed TNF reporter (either direction); inactive = little change

| gene symbol | reagent no. | TNF reporter z-score, replicate mean | z-score, median over gene's siRNAs | Outcome |
| --- | --- | --- | --- | --- |
| DUSP6 (GeneID 1848) | 1 | -0.89 | -1.08 | inactive |
| DUSP6 (GeneID 1848) | 2 | -1.46 | -1.08 | active |
| DUSP6 (GeneID 1848) | 3 | -1.27 | -1.08 | active |
| DUSP6 (GeneID 1848) | 4 | -0.41 | -1.08 | inactive |
| DUSP6 (GeneID 1848) | 5 | -1.28 | -1.08 | active |
| DUSP6 (GeneID 1848) | 6 | -0.44 | -1.08 | inactive |
| PHC3 (GeneID 80012) | 1 | -0.82 | -0.12 | inactive |
| PHC3 (GeneID 80012) | 2 | 1.25 | -0.12 | inactive |
| PHC3 (GeneID 80012) | 3 | 0.01 | -0.12 | inactive |
| PHC3 (GeneID 80012) | 4 | -0.25 | -0.12 | inactive |
| PHC3 (GeneID 80012) | 5 | -0.49 | -0.12 | inactive |
| PHC3 (GeneID 80012) | 6 | 1.12 | -0.12 | inactive |
| CARD19 (GeneID 84270) | 1 | 2.56 | 1 | active |
| CARD19 (GeneID 84270) | 2 | 0.73 | 1 | inactive |
| CARD19 (GeneID 84270) | 3 | 1.28 | 1 | inactive |
| CARD19 (GeneID 84270) | 4 | 5.58 | 1 | active |
| CARD19 (GeneID 84270) | 5 | 0.58 | 1 | inactive |
| CARD19 (GeneID 84270) | 6 | -0.6 | 1 | inactive |
| ALG5 (GeneID 29880) | 1 | -0.18 | -0.2 | inactive |
| ALG5 (GeneID 29880) | 2 | 1.43 | -0.2 | inactive |
| ALG5 (GeneID 29880) | 3 | -1.72 | -0.2 | active |
| ALG5 (GeneID 29880) | 4 | -0.86 | -0.2 | inactive |
| ALG5 (GeneID 29880) | 5 | -0.22 | -0.2 | inactive |
| ALG5 (GeneID 29880) | 6 | 2.29 | -0.2 | active |
| BLOC1S3 (GeneID 388552) | 1 | 1.36 | -0.12 | inactive |
| BLOC1S3 (GeneID 388552) | 2 | -0.49 | -0.12 | inactive |
| BLOC1S3 (GeneID 388552) | 3 | -0.29 | -0.12 | inactive |
| BLOC1S3 (GeneID 388552) | 4 | 0.05 | -0.12 | inactive |
| BLOC1S3 (GeneID 388552) | 5 | 0.9 | -0.12 | inactive |
| BLOC1S3 (GeneID 388552) | 6 | -0.73 | -0.12 | inactive |

Just “TNF reporter z-score, replicate mean” (12 entries from above):
ALG5 (GeneID 29880) #1	-0.18
ALG5 (GeneID 29880) #2	1.43
ALG5 (GeneID 29880) #3	-1.72
ALG5 (GeneID 29880) #4	-0.86
ALG5 (GeneID 29880) #5	-0.22
ALG5 (GeneID 29880) #6	2.29
BLOC1S3 (GeneID 388552) #1	1.36
BLOC1S3 (GeneID 388552) #2	-0.49
BLOC1S3 (GeneID 388552) #3	-0.29
BLOC1S3 (GeneID 388552) #4	0.05
BLOC1S3 (GeneID 388552) #5	0.9
BLOC1S3 (GeneID 388552) #6	-0.73

Further reagents follow.
| gene symbol | reagent no. | TNF reporter z-score, replicate mean | z-score, median over gene's siRNAs | Outcome |
| --- | --- | --- | --- | --- |
| RSRC2 (GeneID 65117) | 1 | 0.63 | 0.485 | inactive |
| RSRC2 (GeneID 65117) | 2 | 0.34 | 0.485 | inactive |
| RSRC2 (GeneID 65117) | 3 | 0.45 | 0.485 | inactive |
| RSRC2 (GeneID 65117) | 4 | -0.17 | 0.485 | inactive |
| RSRC2 (GeneID 65117) | 5 | 0.52 | 0.485 | inactive |
| RSRC2 (GeneID 65117) | 6 | 0.63 | 0.485 | inactive |
| CALM3 (GeneID 808) | 1 | 1.07 | 1.14 | inactive |
| CALM3 (GeneID 808) | 2 | 1.2 | 1.14 | inactive |
| CALM3 (GeneID 808) | 3 | 0.71 | 1.14 | inactive |
| CALM3 (GeneID 808) | 4 | 4.55 | 1.14 | active |
| CALM3 (GeneID 808) | 5 | 2 | 1.14 | active |
| CALM3 (GeneID 808) | 6 | 0.86 | 1.14 | inactive |
| PHOX2B (GeneID 8929) | 1 | 0.78 | -0.16 | inactive |
| PHOX2B (GeneID 8929) | 2 | -1.35 | -0.16 | active |
| PHOX2B (GeneID 8929) | 3 | 0.85 | -0.16 | inactive |
| PHOX2B (GeneID 8929) | 4 | -0.93 | -0.16 | inactive |
| PHOX2B (GeneID 8929) | 5 | -0.08 | -0.16 | inactive |
| PHOX2B (GeneID 8929) | 6 | -0.24 | -0.16 | inactive |
| NDE1 (GeneID 54820) | 1 | 0.66 | 0.31 | inactive |
| NDE1 (GeneID 54820) | 2 | 0.4 | 0.31 | inactive |
| NDE1 (GeneID 54820) | 3 | -0.3 | 0.31 | inactive |
| NDE1 (GeneID 54820) | 4 | -1 | 0.31 | active |
| NDE1 (GeneID 54820) | 5 | 1.03 | 0.31 | inactive |
| NDE1 (GeneID 54820) | 6 | 0.22 | 0.31 | inactive |
| SLC25A6 (GeneID 293) | 1 | 0.6 | 1 | inactive |
| SLC25A6 (GeneID 293) | 2 | 1.66 | 1 | active |
| SLC25A6 (GeneID 293) | 3 | 0.9 | 1 | inactive |
| SLC25A6 (GeneID 293) | 4 | 1.2 | 1 | inactive |
| SLC25A6 (GeneID 293) | 5 | 0.23 | 1 | inactive |
| SLC25A6 (GeneID 293) | 6 | 1.11 | 1 | inactive |
| ARL14EP (GeneID 120534) | 1 | -0.12 | -0.015 | inactive |
| ARL14EP (GeneID 120534) | 2 | -0.57 | -0.015 | inactive |
| ARL14EP (GeneID 120534) | 3 | 0.16 | -0.015 | inactive |
| ARL14EP (GeneID 120534) | 4 | 0.43 | -0.015 | inactive |
| ARL14EP (GeneID 120534) | 5 | -0.17 | -0.015 | inactive |
| ARL14EP (GeneID 120534) | 6 | 0.09 | -0.015 | inactive |
| BCL2 (GeneID 596) | 1 | -1.79 | -1.31 | active |
| BCL2 (GeneID 596) | 2 | -2.01 | -1.31 | active |
| BCL2 (GeneID 596) | 3 | -0.92 | -1.31 | inactive |
| BCL2 (GeneID 596) | 4 | -1.71 | -1.31 | active |
| BCL2 (GeneID 596) | 5 | 0.52 | -1.31 | inactive |
| BCL2 (GeneID 596) | 6 | 0.7 | -1.31 | inactive |
| SNW1 (GeneID 22938) | 1 | -0.83 | -0.81 | inactive |
| SNW1 (GeneID 22938) | 2 | -0.79 | -0.81 | inactive |
| SNW1 (GeneID 22938) | 3 | -1.01 | -0.81 | active |
| SNW1 (GeneID 22938) | 4 | 0.39 | -0.81 | inactive |
| SNW1 (GeneID 22938) | 5 | -1.43 | -0.81 | active |
| SNW1 (GeneID 22938) | 6 | -0.67 | -0.81 | inactive |
| KIN (GeneID 22944) | 1 | -0.01 | 0.245 | inactive |
| KIN (GeneID 22944) | 2 | -0.45 | 0.245 | inactive |
| KIN (GeneID 22944) | 3 | 0.5 | 0.245 | inactive |
| KIN (GeneID 22944) | 4 | 1.5 | 0.245 | active |
| KIN (GeneID 22944) | 5 | 1.71 | 0.245 | active |
| KIN (GeneID 22944) | 6 | -0.3 | 0.245 | inactive |
